Results published in article PMC3846889.
These are yes or no findings as the source states them, for the method shown. Some entries that bind do so weakly or less than the wild type.

The chains behind the UniProt entries cited, without tags or fusion partners. Residues count along the entry.
UniProt O95925, residues 22-133: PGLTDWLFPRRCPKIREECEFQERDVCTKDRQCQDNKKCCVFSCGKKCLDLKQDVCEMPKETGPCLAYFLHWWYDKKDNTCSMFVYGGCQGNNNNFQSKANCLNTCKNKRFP
recombinant SEMG1^74-42 (residues R165-R281) (P04279, residues 165-281): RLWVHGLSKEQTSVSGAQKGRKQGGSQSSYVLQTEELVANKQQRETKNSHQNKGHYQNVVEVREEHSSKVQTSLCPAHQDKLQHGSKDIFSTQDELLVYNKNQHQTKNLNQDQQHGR
recombinant SEMG1^74-8 (residues R165-Q247) (P04279, residues 165-247): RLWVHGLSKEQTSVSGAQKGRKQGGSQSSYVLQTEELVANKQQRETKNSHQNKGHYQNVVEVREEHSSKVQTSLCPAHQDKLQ
recombinant SEMG1^32-42 (residues Q207-R281) (P04279, residues 207-281): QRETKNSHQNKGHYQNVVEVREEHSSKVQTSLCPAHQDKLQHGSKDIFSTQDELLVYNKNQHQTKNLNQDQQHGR

Target: human recombinant EPPIN (residues P22-P133) (human) (UniProt O95925)
Experiment: AlphaScreen or HTRF; direct binding, concentration-response: EPPIN (29 nM) on anti-EPPIN Q20E antibody (2 nM) and Protein A acceptor beads; His-tagged SEMG1 construct (0.04-7.5 µM) on Ni-NTA-chelate donor beads; 10 µg/ml beads, 30 µl; EC50 from the specific signal after 16 h; both purified

Row | Substance | binding
1 | recombinant SEMG1^32-42 (residues Q207-R281) (from UniProt P04279-1 207-281) (domain or fragment) | no binding (tested: 0.04-7.5 µM SEMG1 tested)
2 | recombinant SEMG1^74-42 (residues R165-R281) (from UniProt P04279-1 165-281) (domain or fragment) | binds
3 | recombinant SEMG1^74-8 (residues R165-Q247) (from UniProt P04279-1 165-247) (domain or fragment) | binds
